Test results from patent US20180117182.
For some assays here: Results from cells or extracts need not show a direct contact. No signal at the amounts used counts as a negative. Construct, isoform or probe ends are uncertain for at least one entry.

What was measured:
[1] = test system: thrombin at in vivo thrombus (Mus musculus); assay: binding assay; settings: 2'-F pyrimidines, 2'-OH purines, 3' idT, 5' C6 amine or thiol linker, FeCl3 jugular vein thrombus NIR imaging, label: 5' Alexa Fluor 680, variant of Tog25t
[2] = test system: thrombin in human plasma / plasma clot (Homo sapiens); assay: binding assay; settings: 2'-F pyrimidines, 2'-OH purines, 3' idT, 5' C6 amine or thiol linker, protein in an extract, label: 5' Alexa Fluor 680

Does “GGGAACAAAGCUGAAGUACUUACCC [Tog25t-AF680]” bind ([1]; reversed by AO4)?
Result: binds

Does “GGGAACAAAGCUGAAGUACUUACCC [Tog25t-AF680]” bind ([2]; human plasma clot fluorescence imaging, 37 C, reversed by antidote AO4, variant of Tog25t)?
Result: binds

Does “GGGAACAAAGCUGAAGUACUUAGGG [Tog25t-Control2-AF680]” bind ([1]; no significant localization)?
Result: no binding

Does “GGGAACAAAGCUGAAGUACUUAGGG [Tog25t-Control2-AF680]” bind ([2]; human plasma clot fluorescence, described as non-binding point mutant control, variant of Tog25t)?
Result: no binding

Does “GGAGCAGCUAGACGGUAUAAGGAUA [Tog25t-Control3-AF680]” bind ([2]; human plasma clot fluorescence, Tog25t signal significantly enhanced over this control)?
Result: no binding
